*: point of attachment. ClZ = O=C(OCc1ccccc1Cl)*; Boc = CC(C)(C)OC(=O)*; OBn = c1ccc(CO*)cc1; Bn = c1ccc(C*)cc1

One data set is described as follows: general procedure: solution-phase peptide synthesis; WSCI/HOBT; OSU and ONP active esters with HOBT, 2,4-dinitrophenol; azide method. The note with it: coupling step.
The substance BOC--Asn--VAl--Leu--Val--OBzl yielded a step yield of 79.5%. The substance “BOC--Lys(Z--Cl)--Ala--Asp(OBzl)--Val--Asp(OBzl)--Val--Leu--Thr(Bzl)--Lys(ZCl)--Ala--Lys(Z--Cl)--Ser (Bzl)--Gln--OBzl” came in with a step yield of 96.7%.

For “Boc-AD(OBn)K(ClZ)AD(OBn)VD(OBn)VLT(Bn)K(ClZ)AK(ClZ)S(Bn)Q-OBn”, the step yield came out at 98.3%.

On to “Boc-D(OBn)K(ClZ)AD(OBn)VD(OBn)VLT(Bn)K(ClZ)AK(ClZ)S(Bn)Q-OBn”, for which the step yield is on record as 95.0%. In turn, “Boc-D(OBn)VD(OBn)VLT(Bn)K(ClZ)AK(ClZ)S(Bn)Q-OBn” yielded a step yield of 94.2%.

Regarding “Boc-D(OBn)VLT(Bn)K(ClZ)AK(ClZ)S(Bn)Q-OBn”, the step yield was determined as 99.14%.

In the case of “Boc-E(OBn)AD(OBn)K(ClZ)AD(OBn)VD(OBn)VLT(Bn)K(ClZ)AK(ClZ)S(Bn)Q-OBn”, the step yield stood at 96.5%. On the same count and under the same terms, under Boc-E(OBn)K(ClZ)S(Bn)LG-OH stands 73.5%; under Boc-K(ClZ)S(Bn)LG-OBn, 94.6%.

Boc-S(Bn)HE(OBn)K(ClZ)S(Bn)LG-OH gave a step yield of 60.1%. Substance “Boc-VD(OBn)VLT(Bn)K(ClZ)AK(ClZ)S(Bn)Q-OBn” showed a step yield of 98.2%.

Boc-VLT(Bn)K(ClZ)A-OMe returned a step yield of 94.9%. Same read-out and setting: under Boc-VLT(Bn)K(ClZ)AK(ClZ)S(Bn)Q-OBn stands 90.68%; under “P(55-84): BOC--Glu(OBzl)--Asp(OBzl)--Asn--Val--Leu--Val--Glu(OBzl)--Ser(Bzl)--His--Glu(OBzl)--Lys(Z--Cl)--Ser(Bzl)--Leu--Gly--Glu(OBzl)--Ala--Asp(OBzl)--Lys(Z- -Cl)--Ala--Asp(OBzl)--Val--Asp(OBzl)--Val--Leu--Thr(Bzl)--Lys(Z--Cl)--Ala-- Lys(Z--Cl)--Ser(Bzl)--Gln--OBzl”, 93.3%; under “P(56-84): BOC--Asp(OBzl)--Asn--Val--Leu--Val--Glu(OBzl)--Ser(Bzl)--His--Glu(OBzl)--Lys(Z--Cl)--Ser(Bzl)--Leu--Gly--Glu(OBzl)--Ala--Asp(OBzl)--Lys(Z--Cl)--Ala-- Asp(OBzl)--Val--Asp(OBzl)--Val--Leu--Thr(Bzl)--Lys(Z--Cl)--Ala--Lys(Z--Cl)- -Ser(Bzl)--Gln--OBzl”, 92.5%. In turn, “P(61-84): BOC--Glu(OBzl)--Ser(Bzl)--His--Glu(OBzl)--Lys(Z--Cl)--Ser(Bzl)--Leu--Gly-- Glu(OBzl)--Ala--Asp(OBzl)--Lys(Z--Cl)--Ala--Asp(OBzl)--Val--Asp(OBzl)--Val- -Leu--Thr(Bzl)--Lys(Z--Cl)--Ala--Lys(Z--Cl)--Ser(Bzl)--Gln--OBzl” registered a step yield of 93.2%. Substance “P(62-84): BOC--Ser(Bzl)--His--Glu(OBzl)--Lys(Z--Cl)--Ser(Bzl)--Leu--Gly--Glu(OBzl)-- Ala--Asp(OBzl)--Lys(Z--Cl)--Ala--Asp(OBzl)--Val--Asp(OBzl)--Val--Leu--Thr(Bzl)--Lys(Z--Cl)--Ala--Lys(Z--Cl)--Ser(Bzl)--Gln--OBzl” displayed a step yield of 88.4%.

Still in this data set, the particulars now being: late stage modification step.
Turning to BOC--Asn--VAl--Leu--Val--OH, the step yield came out at 71.4%.

In the case of Boc-K(ClZ)S(Bn)LG-OH, the step yield came out at 87%. Boc-VLT(Bn)K(ClZ)A-OH displayed a step yield of 73.1%.

Source of the values: patent publication US4409141 (dated 1983).
